# From patent US20260167710A1
# Results are given in words; binding and its absence hold for the method and conditions named. Some entries that bind do so weakly or less than the wild type.
# Molecular target: cynomolgus IL-33 (cynomolgus monkey)
# Assay: MSD-SET (similar procedure), 25 C
row,binding,Binder
1,binds,"22A06-429 (antibody, V domains shown) VH: QVQLVQSGAEVKKPGASVKVSCKASGYTFISYGMHWVRQAPGQGLEWMGEINPHGGSTSYAQKFQGRVTMTRDTSTSTVYMELSSLRSEDTAVYYCARPSAAYSHYLGIDMWGRGTLVTVSS VL: DIQMTQSPSSVSASVGDRVTITCRASQGISSWLAWYQQKPGKAPKLLIYAASRLQSGVPSRFSGSGSGTDFTLTISSLQPEDFATYYCQQANVFPLTFGGGTKVEIKR"
2,binds,"22A06-481 (antibody, V domains shown) VH: QVQLVQSGAEVKKPGASVKVSCKASGYTFISYGMHWVRQAPGQGLEWMGEINPHGGSTSYAQKFQGRVTMTRDTSTSTVYMELSSLRSEDTAVYYCARPSAAYSHYLGLDIWGRGTLVTVSS VL: DIQMTQSPSSVSASVGDRVTITCRASQGISPWLAWYQQKPGKAPKLLIYAGSSLQSGVPSRFSGSGSGTDFTLTISSLQPEDFATYYCQQANVFPLTFGGGTKVEIKR"
3,binds,"22A06-502 (antibody, V domains shown) VH: QVQLVQSGAEVKKPGASVKVSCKASGYTFISYGMHWVRQAPGQGLEWMGEINPHGGSTSYAQKFQGRVTMTRDTSTSTVYMELSSLRSEDTAVYYCARPSAAYSHYLGIDLWGRGTLVTVSS VL: DIQMTQSPSSVSASVGDRVTITCRTSQGISSWLSWYQQKPGKAPKLLIYAASSLQSGVPSRFSGSGSGTDFTLTISSLQPEDFATYYCQQAHVLPLTFGGGTKVEIKR"
